The results in this text go back to patent US20180344736A1.

By UniProt entry, the sequences of proteins in these tests, tags left out. Where a name states a change or a piece, a line headed by the entry shows the natural chain unless it says otherwise. Chains listed by the source or under a name are the forms on record and can include a tag or linker. Residues count along the entry.
UniProt Q9UM11: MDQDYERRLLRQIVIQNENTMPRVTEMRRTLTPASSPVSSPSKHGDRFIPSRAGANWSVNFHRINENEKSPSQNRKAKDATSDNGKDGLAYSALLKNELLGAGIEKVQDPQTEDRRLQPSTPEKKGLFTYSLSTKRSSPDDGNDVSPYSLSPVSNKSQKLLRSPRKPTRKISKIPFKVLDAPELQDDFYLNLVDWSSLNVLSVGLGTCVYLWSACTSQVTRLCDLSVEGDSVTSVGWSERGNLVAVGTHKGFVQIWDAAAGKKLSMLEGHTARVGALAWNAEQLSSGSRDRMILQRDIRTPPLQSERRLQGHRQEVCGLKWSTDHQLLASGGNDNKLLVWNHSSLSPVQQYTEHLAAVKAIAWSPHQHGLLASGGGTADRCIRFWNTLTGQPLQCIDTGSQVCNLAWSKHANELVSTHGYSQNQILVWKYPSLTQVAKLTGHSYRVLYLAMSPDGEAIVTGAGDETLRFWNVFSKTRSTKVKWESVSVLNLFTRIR
Purified Cdh1 recombinant protein (Q9UM11, form named): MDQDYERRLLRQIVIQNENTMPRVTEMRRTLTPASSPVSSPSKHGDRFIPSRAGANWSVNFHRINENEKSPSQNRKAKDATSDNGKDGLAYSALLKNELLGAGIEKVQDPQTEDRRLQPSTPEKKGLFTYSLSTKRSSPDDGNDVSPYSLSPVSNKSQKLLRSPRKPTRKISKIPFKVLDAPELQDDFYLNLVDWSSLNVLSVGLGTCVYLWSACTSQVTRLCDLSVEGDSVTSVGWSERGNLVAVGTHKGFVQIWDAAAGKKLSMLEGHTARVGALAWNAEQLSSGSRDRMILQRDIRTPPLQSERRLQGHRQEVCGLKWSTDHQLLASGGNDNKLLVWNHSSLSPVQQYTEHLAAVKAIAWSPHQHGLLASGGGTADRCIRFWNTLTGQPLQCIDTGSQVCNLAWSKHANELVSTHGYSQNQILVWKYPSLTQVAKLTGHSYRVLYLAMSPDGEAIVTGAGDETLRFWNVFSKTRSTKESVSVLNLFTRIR
UniProt Q12834: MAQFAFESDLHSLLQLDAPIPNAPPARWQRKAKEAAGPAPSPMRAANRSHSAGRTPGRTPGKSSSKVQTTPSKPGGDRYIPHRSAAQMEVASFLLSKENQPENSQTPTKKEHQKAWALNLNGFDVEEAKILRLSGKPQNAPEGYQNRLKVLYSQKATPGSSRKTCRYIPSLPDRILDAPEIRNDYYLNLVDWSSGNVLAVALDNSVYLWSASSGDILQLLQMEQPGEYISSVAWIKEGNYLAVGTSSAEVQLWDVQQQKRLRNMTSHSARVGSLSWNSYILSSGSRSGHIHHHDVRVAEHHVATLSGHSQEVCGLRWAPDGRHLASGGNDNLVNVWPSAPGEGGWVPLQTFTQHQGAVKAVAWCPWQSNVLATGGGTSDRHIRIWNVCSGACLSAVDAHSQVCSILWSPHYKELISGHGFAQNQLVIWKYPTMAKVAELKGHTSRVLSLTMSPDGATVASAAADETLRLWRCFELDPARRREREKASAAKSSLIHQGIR
UniProt P53350, residues 2-603: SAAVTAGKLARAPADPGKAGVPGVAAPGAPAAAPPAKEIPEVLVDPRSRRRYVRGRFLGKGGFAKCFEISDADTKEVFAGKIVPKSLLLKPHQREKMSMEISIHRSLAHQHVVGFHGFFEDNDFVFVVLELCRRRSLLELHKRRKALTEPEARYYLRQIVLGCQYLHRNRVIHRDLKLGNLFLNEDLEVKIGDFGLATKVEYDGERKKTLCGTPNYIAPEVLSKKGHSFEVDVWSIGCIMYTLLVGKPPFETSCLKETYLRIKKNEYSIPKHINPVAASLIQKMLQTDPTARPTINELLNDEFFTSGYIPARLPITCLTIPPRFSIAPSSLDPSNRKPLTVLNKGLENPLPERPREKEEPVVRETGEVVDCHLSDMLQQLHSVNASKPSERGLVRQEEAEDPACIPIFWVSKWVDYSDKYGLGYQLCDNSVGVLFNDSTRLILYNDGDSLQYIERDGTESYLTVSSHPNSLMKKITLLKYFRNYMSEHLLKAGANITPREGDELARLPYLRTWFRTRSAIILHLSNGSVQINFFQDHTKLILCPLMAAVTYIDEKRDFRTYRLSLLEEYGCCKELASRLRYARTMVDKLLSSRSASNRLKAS
UniProt O60260: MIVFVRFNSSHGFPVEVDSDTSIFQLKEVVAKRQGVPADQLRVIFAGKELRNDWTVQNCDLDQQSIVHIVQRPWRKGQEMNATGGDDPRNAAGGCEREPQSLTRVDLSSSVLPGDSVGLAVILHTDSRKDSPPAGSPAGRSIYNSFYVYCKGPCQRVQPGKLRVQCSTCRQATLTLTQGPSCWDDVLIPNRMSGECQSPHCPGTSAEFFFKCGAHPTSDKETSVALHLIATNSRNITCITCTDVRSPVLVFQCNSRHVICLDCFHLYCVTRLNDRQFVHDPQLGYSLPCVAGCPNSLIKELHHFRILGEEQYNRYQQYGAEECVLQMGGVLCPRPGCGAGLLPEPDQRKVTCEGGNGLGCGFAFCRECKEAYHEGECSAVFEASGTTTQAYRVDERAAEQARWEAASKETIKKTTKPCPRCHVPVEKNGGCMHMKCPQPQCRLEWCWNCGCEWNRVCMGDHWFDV

These are yes or no findings as the source states them, for the method shown. For some of these results: In cells and extracts the contact can be indirect. Some binding calls cover weakened binding; strength is not graded here.

The target in one experiment is Cdh1 (human) (UniProt Q9UM11). Nature of the experiment: IP-immunoblot of transfected Parkin domain constructs, mitotic cells (FIG. 10A). Background: A western blot detects proteins with antibodies after separation by electrophoresis.
Experiment [1] deals with Purified Cdc20 recombinant protein (UniProt Q12834). Nature of the experiment: GST pull-down, GST-Parkin on GSH-Sepharose with purified protein (FIG. 6B).
Experiment [2] deals with Purified Cdh1 recombinant protein (UniProt Q9UM11). Described as above.
In the next experiment the target is Plk1 (human) (UniProt P53350). Put plainly: IP-immunoblot of transfected Parkin domain constructs, mitotic cells (FIG. 10A).

Consider “Parkin RING2 domain alone (from UniProt O60260 415-465)”, for which, in the experiment with Cdh1 (human), the binding entry is listed as “binds”.
“GST-Parkin (from UniProt O60260 1-465) (enzyme)”: the binding entry in experiment [1] and in experiment [2] was “binds” throughout.
With “Parkin C terminal region containing the RING1-IBR domain (from UniProt O60260 238-377)”, the binding result with Plk1 (human) and with Cdh1 (human) was “binds” each time.
For “Parkin C terminal region containing the IBR-RING2 domain (from UniProt O60260 313-465)”, the binding entry with Plk1 (human) and with Cdh1 (human) was “binds” throughout.
